Experimental data taken from PMC10434240.
Results are given in words; binding and its absence hold for the method and conditions named. In cells and extracts the contact can be indirect. Some binding calls cover weakened binding; strength is not graded here. For some of these results: Where a sequence is shown, tags or fusion partners need not be part of it.

By UniProt entry, the sequences of proteins in these tests, tags left out.
UniProt A2DKH3: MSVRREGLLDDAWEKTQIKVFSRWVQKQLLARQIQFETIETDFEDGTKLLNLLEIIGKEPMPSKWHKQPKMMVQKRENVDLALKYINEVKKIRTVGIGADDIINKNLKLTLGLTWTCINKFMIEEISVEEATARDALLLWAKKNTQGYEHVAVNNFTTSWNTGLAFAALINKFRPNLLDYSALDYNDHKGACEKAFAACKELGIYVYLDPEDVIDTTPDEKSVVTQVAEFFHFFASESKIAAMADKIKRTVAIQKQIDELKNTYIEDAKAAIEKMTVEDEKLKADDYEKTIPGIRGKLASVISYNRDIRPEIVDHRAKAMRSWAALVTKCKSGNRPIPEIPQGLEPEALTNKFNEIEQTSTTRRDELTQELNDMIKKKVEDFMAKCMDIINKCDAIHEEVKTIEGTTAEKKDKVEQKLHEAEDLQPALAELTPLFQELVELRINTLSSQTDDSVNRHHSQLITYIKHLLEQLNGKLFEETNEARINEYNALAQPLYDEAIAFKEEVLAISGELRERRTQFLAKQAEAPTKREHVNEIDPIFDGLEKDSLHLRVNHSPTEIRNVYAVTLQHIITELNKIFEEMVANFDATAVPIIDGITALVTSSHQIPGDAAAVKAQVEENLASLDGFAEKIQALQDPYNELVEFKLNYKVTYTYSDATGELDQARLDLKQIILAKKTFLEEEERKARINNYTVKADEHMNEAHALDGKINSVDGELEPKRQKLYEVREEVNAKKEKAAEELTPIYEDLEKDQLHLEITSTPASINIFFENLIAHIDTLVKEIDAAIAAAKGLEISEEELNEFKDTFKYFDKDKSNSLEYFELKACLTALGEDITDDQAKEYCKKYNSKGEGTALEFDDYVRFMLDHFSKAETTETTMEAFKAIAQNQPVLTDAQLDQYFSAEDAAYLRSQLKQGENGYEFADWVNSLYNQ
UniProt P90623: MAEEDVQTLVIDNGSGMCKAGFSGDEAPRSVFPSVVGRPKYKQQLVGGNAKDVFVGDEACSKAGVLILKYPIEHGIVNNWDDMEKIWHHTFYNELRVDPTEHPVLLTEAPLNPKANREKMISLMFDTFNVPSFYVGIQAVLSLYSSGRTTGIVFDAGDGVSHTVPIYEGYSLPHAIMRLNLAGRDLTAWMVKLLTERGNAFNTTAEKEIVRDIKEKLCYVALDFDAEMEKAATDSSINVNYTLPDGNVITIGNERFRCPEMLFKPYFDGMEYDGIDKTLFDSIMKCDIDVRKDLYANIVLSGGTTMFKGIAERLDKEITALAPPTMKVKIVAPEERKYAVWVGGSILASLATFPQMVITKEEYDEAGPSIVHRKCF

Experiments:
[1] = target: T1, T. vaginalis F-actin capping protein subunit α (TvFACPα), endogenous (Trichomonas vaginalis (endogenous in TH17 trophozoites)) (UniProt A2FE30); assay: co-IP; endogenous TvFACPα immunoprecipitated from lysates of flagellate and amoeboid TH17 trophozoites; Western blotting
T1 sequence: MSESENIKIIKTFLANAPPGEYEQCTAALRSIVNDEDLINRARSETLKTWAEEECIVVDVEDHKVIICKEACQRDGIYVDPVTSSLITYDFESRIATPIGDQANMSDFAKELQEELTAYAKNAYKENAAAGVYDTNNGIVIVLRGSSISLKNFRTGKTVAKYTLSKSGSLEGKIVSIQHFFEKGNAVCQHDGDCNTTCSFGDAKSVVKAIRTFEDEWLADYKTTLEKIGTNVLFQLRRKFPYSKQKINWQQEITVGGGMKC

[2] = target: T2, HA-TvFACPα (Trichomonas vaginalis) (UniProt A2FE30); assay: co-IP; anti-HA agarose beads on lysates of TH17 trophozoites overexpressing HA-TvFACPα or its mutants (1% Triton X-100, 5 mM EDTA in TBS, 4°C overnight); Western blotting for α-actin and α-actinin; also after DMSO or TBB (CKII inhibitor) treatment
T2 sequence: T1 sequence

Row | Substance | binding [1] | binding [2]
1 | α-Actinin, putative (from UniProt A2DKH3 1-931) | binds | binds
2 | α-actin (endogenous T. vaginalis) (from UniProt P90623 1-376) | binds | binds
